According to publication PMC10710061:

Biological target: SAP05 N77R (purified, for ITC) (Aster Yellows phytoplasma strain Witches Broom (AYWB))
Assay: condition: 20 μM SAP05 mutant in the cell, 200 μM SPL5^ZnF from the syringe; ITC; SPL5^ZnF from the syringe (250 μM for wild-type SAP05, 200 μM for the SAP05–Rpn10^vWA complex or SAP05 mutants) into 20 μM partner in the cell; 25 °C, 20 mM HEPES pH 7.5, 150 mM NaCl; one-site binding model; both purified

B1: ZnF domain of Arabidopsis thaliana SPL5, residues 60 to 127 (domain or fragment, UniProt Q9S758 60-127)
chain: SRLCQVDRCTVNLTEAKQYYRRHRVCEVHAKASAATVAGVRQRFCQQCSRFHELPEFDEAKRSCRRRL
B1 was tested, and the binding was “no binding”.

These are yes or no findings as the source states them, for the method shown.
